Experimental data published in patent publication US6974863 (INDIANA UNIVERSITY RESEARCH AND TECHNOLOGY, dated 2005).
These are yes or no findings as the source states them, for the method shown. Binding seen in cells or lysates may run through a third protein. Some entries that bind do so weakly or less than the wild type.

The chains behind the UniProt entries cited, without tags or fusion partners. Where a name states a change or a piece, a line headed by the entry shows the natural chain unless it says otherwise. Residues count along the entry.
UniProt P06240, residues 2-509: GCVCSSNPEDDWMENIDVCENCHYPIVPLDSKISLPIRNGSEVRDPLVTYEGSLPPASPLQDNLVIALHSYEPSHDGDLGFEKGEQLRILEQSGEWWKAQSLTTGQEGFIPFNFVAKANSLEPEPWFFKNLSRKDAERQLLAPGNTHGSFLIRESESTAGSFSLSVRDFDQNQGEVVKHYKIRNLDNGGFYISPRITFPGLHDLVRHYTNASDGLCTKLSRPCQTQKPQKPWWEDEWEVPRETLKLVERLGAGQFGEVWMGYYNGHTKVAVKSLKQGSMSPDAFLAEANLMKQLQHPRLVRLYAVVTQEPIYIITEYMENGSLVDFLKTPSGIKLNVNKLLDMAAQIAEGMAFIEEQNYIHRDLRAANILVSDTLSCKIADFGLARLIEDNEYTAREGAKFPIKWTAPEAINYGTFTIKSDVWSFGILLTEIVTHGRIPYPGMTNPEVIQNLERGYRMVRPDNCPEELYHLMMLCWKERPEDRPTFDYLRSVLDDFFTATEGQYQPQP
UniProt P20334: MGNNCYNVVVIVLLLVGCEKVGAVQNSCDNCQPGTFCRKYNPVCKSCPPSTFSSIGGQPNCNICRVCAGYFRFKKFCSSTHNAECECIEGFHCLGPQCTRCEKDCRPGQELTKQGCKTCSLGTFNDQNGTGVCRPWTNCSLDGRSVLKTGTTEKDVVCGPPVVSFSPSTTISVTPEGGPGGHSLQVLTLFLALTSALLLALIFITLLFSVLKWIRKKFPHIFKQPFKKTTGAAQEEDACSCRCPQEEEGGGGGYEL

Tests used:
[1] = molecular target: murine protein tyrosine kinase p56lck (wild type) (murine) (UniProt P06240); assay: coimmunoprecipitation with 53A2
[2] = molecular target: murine protein tyrosine kinase p56lck (wild type) (murine) (UniProt P06240); assay: coimmunoprecipitation with 53A2 from CTLL-2 lysate, in vitro kinase labeling
[3] = molecular target: murine protein tyrosine kinase p56lck (wild type) (murine) (UniProt P06240); assay: coimmunoprecipitation with 53A2 from Sf-21 cells coexpressing both, in vitro kinase labeling
[4] = molecular target: murine protein tyrosine kinase p56lck (wild type) (murine) (UniProt P06240); assay: coimmunoprecipitation with 53A2 from HeLa cells, in vitro kinase labeling
[5] = molecular target: murine protein tyrosine kinase p56lck (wild type) (murine) (UniProt P06240); assay: coimmunoprecipitation with 53A2, in vitro kinase labeling, V8 protease peptide mapping

binding [1]: binds
binding [2]: binds
binding [3]: binds
binding [4]: binds
binding [5]: binds
Substance: mouse receptor protein 4-1BB (full length) (from UniProt P20334 24-256)
